Results are given in words; binding and its absence hold for the method and conditions named. Binding seen in cells or lysates may run through a third protein. Some binding calls cover weakened binding; strength is not graded here. For some of these results: Tags and fused reporters may be left off the sequences shown.
T1: zebrafish mediator of IFN regulatory factor 3 activation (MITA), full-length, in HEK 293T cells (zebrafish) (UniProt E7F4N7)
T1 sequence: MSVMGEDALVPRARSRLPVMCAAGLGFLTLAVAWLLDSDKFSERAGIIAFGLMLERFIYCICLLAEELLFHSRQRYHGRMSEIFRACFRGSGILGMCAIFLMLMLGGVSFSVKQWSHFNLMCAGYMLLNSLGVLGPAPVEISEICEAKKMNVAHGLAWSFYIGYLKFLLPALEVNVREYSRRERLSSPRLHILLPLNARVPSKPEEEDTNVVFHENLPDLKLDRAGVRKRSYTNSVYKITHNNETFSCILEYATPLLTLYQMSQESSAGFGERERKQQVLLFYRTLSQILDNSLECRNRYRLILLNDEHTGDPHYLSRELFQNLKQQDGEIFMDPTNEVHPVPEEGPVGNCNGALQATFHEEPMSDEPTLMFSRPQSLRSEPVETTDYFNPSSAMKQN

T2: zebrafish mediator of IFN regulatory factor 3 activation (MITA), Flag-tagged (zebrafish) (UniProt E7F4N7)
T2 sequence: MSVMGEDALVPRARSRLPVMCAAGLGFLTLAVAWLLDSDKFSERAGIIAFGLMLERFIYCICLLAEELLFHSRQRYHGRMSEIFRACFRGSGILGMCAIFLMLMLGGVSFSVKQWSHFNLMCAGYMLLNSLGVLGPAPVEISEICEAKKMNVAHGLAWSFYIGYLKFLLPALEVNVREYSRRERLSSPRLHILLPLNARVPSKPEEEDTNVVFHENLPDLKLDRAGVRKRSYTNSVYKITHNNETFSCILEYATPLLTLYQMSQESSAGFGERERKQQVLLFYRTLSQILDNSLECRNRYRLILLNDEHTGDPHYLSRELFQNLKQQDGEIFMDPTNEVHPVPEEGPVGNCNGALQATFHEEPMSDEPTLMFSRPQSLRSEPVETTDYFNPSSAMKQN


Assays:
[1] = molecular target: zebrafish TANK binding kinase 1 (TBK1), Flag-tagged (zebrafish); experiment: co-IP; EPC cells co-transfected with TBK1-Flag and MITA-HA or IRF3-Myc together with TMEM33 (2 or 4 μg); anti-Flag affinity gel; immunoblot
[2] = molecular target: zebrafish TANK binding kinase 1 (TBK1), Flag-tagged (zebrafish); experiment: co-IP; EPC cells co-transfected; lysates immunoprecipitated with anti-Flag affinity gel, immunoblot of the tagged partner
[3] = molecular target: zebrafish TANK binding kinase 1 (TBK1), wild-type, in HEK 293T cells (zebrafish); experiment: co-IP; HEK 293T cells co-transfected (5 μg each plasmid), 24 h; RIPA lysis buffer; anti-Flag or anti-Myc affinity gel overnight at 4°C; immunoblot
[4] = molecular target: T1, zebrafish mediator of IFN regulatory factor 3 activation (MITA), full-length, in HEK 293T cells (zebrafish); experiment: as above
[5] = molecular target: T2, zebrafish mediator of IFN regulatory factor 3 activation (MITA), Flag-tagged (zebrafish); experiment: co-IP; EPC cells co-transfected; lysates immunoprecipitated with anti-Flag affinity gel, immunoblot of the tagged partner

Row | binding [1] | binding [2] | binding [3] | binding [4] | binding [5] | Binder
1 | binds | binds |  |  |  | zebrafish mediator of IFN regulatory factor 3 activation (MITA), HA-tagged (protein, UniProt E7F4N7 1-398) MSVMGEDALVPRARSRLPVMCAAGLGFLTLAVAWLLDSDKFSERAGIIAFGLMLERFIYCICLLAEELLFHSRQRYHGRMSEIFRACFRGSGILGMCAIFLMLMLGGVSFSVKQWSHFNLMCAGYMLLNSLGVLGPAPVEISEICEAKKMNVAHGLAWSFYIGYLKFLLPALEVNVREYSRRERLSSPRLHILLPLNARVPSKPEEEDTNVVFHENLPDLKLDRAGVRKRSYTNSVYKITHNNETFSCILEYATPLLTLYQMSQESSAGFGERERKQQVLLFYRTLSQILDNSLECRNRYRLILLNDEHTGDPHYLSRELFQNLKQQDGEIFMDPTNEVHPVPEEGPVGNCNGALQATFHEEPMSDEPTLMFSRPQSLRSEPVETTDYFNPSSAMKQN
2 |  |  | binds | binds |  | zebrafish transmembrane protein 33 (TMEM33), full-length, in HEK 293T cells (protein, UniProt A0A8M1PJV5 1-252) MADTEQRSPPPPPPPQAGAAQFLLSNKLETAMWLSRLFTVYCSIMFILPLLGPQAAANFYQRALLANALTSALRLHQRLPHFQLSRAFLAQALQEDSCHYLLYSLILVNSYPITMSIFPVFLFSLLHATTYTKKVLDTMGPNSLMFVRNFLNKLTSNQQNILKFIACNEIFLMPATVFMLFSGQGSLLQPFIYYRFLTLRYSSRRNPYCRTLFTELRILLEHFVMKPSCPVFFRRMCLNSIAFVSRLAPTGV
3 |  | binds |  |  | binds | zebrafish transmembrane protein 33 (TMEM33), Myc-tagged (protein, UniProt A0A8M1PJV5 1-252) MADTEQRSPPPPPPPQAGAAQFLLSNKLETAMWLSRLFTVYCSIMFILPLLGPQAAANFYQRALLANALTSALRLHQRLPHFQLSRAFLAQALQEDSCHYLLYSLILVNSYPITMSIFPVFLFSLLHATTYTKKVLDTMGPNSLMFVRNFLNKLTSNQQNILKFIACNEIFLMPATVFMLFSGQGSLLQPFIYYRFLTLRYSSRRNPYCRTLFTELRILLEHFVMKPSCPVFFRRMCLNSIAFVSRLAPTGV
4 | binds |  |  |  |  | zebrafish transmembrane protein 33 (TMEM33), HA-tagged (protein, UniProt A0A8M1PJV5 1-252) MADTEQRSPPPPPPPQAGAAQFLLSNKLETAMWLSRLFTVYCSIMFILPLLGPQAAANFYQRALLANALTSALRLHQRLPHFQLSRAFLAQALQEDSCHYLLYSLILVNSYPITMSIFPVFLFSLLHATTYTKKVLDTMGPNSLMFVRNFLNKLTSNQQNILKFIACNEIFLMPATVFMLFSGQGSLLQPFIYYRFLTLRYSSRRNPYCRTLFTELRILLEHFVMKPSCPVFFRRMCLNSIAFVSRLAPTGV
